Test results taken from paper doi:10.1101/2020.09.17.302448.
Results are given in words; binding and its absence hold for the method and conditions named. In cells and extracts the contact can be indirect. Some results given as binding are weak or reduced against the parent protein; the word gives no strength.

The chains behind the UniProt entries cited, without tags or fusion partners.
UniProt P35568: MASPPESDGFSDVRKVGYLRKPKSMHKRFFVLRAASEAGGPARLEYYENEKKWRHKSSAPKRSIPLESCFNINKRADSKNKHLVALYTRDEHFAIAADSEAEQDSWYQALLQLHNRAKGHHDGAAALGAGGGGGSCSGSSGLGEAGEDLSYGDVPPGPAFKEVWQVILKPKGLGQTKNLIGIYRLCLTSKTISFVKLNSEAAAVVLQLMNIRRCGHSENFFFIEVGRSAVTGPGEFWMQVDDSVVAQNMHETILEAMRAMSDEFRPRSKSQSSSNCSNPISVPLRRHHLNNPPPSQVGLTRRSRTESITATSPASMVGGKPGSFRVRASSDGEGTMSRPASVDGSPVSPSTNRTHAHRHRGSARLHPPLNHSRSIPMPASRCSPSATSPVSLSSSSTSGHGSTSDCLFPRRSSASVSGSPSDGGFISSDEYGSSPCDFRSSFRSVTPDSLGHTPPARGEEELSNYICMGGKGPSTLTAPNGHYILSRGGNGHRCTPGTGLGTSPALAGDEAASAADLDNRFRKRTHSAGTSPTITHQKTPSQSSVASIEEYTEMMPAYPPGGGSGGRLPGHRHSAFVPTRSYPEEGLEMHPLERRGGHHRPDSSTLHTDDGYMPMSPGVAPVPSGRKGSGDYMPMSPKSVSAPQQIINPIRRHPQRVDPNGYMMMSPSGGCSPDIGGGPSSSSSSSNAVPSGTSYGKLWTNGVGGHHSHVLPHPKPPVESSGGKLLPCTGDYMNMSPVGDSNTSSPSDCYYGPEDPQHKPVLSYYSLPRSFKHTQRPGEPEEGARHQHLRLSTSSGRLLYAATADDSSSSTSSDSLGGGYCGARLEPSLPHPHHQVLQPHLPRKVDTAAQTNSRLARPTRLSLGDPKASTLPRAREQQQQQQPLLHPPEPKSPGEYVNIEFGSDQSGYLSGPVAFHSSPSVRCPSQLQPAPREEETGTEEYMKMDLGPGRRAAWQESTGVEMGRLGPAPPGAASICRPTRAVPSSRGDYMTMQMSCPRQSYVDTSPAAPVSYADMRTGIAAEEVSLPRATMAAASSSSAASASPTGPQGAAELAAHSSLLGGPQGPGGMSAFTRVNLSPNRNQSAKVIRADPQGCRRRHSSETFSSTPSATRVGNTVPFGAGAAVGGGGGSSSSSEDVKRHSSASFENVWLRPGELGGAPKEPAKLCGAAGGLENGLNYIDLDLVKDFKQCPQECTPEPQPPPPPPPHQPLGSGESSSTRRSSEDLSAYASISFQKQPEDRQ
UniProt P25098: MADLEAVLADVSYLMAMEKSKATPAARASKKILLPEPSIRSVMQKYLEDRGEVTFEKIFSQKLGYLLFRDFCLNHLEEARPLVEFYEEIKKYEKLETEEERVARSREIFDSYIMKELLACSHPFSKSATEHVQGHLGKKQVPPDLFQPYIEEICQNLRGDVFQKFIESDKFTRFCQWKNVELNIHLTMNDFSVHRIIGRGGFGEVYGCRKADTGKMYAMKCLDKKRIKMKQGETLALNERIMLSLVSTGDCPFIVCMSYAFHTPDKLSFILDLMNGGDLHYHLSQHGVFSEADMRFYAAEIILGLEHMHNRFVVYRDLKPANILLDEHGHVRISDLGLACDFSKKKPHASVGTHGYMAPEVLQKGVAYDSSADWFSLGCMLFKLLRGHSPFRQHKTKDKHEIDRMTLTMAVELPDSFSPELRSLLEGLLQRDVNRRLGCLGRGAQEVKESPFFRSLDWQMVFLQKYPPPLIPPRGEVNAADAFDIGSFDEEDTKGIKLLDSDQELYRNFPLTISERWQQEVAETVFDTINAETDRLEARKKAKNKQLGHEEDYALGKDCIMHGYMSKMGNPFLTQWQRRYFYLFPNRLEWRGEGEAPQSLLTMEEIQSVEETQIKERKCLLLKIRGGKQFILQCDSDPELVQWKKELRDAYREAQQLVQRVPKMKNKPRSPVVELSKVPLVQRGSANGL
UniProt P48736: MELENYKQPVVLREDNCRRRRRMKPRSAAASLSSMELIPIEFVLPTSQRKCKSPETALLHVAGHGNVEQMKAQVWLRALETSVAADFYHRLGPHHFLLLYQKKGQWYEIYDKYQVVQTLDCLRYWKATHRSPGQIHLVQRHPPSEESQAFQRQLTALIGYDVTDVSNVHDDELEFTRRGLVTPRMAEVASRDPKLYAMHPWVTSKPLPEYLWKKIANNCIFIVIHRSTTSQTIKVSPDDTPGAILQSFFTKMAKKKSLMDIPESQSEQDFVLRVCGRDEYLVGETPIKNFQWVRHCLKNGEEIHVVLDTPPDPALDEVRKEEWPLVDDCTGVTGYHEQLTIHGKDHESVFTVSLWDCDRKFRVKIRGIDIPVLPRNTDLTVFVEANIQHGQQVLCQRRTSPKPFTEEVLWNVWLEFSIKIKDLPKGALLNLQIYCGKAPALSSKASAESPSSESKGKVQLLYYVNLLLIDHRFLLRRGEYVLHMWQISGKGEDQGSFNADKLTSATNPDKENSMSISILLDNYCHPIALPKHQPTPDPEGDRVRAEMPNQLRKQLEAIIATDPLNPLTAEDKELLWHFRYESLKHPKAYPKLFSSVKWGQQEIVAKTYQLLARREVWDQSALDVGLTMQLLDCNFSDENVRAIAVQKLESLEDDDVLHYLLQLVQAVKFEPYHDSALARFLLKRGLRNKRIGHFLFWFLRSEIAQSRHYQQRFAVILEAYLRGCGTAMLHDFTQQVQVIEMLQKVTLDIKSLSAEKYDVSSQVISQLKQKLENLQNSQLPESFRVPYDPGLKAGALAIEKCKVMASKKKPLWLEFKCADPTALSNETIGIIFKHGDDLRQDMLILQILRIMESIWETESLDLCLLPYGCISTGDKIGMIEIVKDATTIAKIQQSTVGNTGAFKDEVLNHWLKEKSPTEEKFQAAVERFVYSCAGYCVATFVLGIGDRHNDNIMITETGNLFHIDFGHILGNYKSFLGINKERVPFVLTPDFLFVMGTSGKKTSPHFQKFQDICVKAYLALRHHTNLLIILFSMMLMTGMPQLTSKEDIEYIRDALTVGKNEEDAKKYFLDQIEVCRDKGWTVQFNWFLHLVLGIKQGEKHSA

Experiments:
[1] = molecular target: insulin receptor substrate 1 (IRS1), endogenous (human (endogenous in HEK 293)) (UniProt P35568); experiment: co-IP
[2] = molecular target: T1, insulin receptor substrate 2 (IRS2), endogenous (human (endogenous in HEK 293)) (UniProt Q9Y4H2); experiment: co-IP
T1 sequence: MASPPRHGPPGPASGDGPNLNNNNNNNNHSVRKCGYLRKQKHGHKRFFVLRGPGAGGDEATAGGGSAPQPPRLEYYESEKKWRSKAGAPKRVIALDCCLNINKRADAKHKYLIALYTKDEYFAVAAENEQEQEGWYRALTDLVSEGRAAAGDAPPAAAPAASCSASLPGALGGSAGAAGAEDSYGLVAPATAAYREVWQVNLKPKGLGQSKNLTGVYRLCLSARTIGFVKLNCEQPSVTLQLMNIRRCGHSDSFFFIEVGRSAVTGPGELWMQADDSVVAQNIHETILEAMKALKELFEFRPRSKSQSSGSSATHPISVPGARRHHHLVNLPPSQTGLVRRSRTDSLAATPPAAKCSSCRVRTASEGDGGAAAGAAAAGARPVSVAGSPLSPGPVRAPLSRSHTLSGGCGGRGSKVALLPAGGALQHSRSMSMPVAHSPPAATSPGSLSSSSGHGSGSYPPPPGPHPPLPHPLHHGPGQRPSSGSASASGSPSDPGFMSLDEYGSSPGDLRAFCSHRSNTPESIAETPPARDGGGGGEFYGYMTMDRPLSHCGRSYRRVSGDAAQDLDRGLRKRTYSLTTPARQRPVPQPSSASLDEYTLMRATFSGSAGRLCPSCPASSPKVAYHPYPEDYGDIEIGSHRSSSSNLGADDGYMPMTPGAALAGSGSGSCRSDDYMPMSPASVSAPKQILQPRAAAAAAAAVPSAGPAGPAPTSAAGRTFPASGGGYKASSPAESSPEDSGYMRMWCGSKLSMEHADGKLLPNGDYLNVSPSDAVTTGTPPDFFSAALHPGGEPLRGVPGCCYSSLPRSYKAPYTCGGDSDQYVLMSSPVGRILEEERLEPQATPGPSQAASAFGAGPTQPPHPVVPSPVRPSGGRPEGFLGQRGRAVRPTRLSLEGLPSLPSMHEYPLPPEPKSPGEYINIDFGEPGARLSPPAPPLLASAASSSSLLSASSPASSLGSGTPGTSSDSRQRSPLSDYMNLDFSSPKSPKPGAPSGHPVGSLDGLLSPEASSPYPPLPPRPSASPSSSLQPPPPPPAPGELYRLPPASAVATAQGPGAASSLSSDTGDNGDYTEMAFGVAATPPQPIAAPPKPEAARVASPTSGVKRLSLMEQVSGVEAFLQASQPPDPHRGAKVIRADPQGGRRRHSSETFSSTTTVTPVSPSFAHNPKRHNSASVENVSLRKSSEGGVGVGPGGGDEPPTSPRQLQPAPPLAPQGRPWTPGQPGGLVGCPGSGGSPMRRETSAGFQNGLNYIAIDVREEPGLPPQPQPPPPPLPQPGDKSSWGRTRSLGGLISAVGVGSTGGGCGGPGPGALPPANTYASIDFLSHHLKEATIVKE

Substance | binding [1] | binding [2]
G protein-coupled receptor kinase 2 (GRK2), endogenous in FLAG-β2AR HEK 293 cells (from UniProt P25098 1-689) (enzyme) | binds | binds
phosphoinositide 3-kinase γ (PI3Kγ), endogenous in FLAG-β2AR HEK 293 cells (from UniProt P48736 1-1102) (enzyme) |  | binds weakly
